Results: article doi:10.1101/2025.11.23.689998
No constants are given. Whether binding was seen depends on the method and setting. In cells and extracts the contact can be indirect. These calls come from enrichment with a bait or labelling near it, and not all partners need be listed.

Protein sequences, listed by entry. Tags and fused reporters are not part of them.
UniProt P14713: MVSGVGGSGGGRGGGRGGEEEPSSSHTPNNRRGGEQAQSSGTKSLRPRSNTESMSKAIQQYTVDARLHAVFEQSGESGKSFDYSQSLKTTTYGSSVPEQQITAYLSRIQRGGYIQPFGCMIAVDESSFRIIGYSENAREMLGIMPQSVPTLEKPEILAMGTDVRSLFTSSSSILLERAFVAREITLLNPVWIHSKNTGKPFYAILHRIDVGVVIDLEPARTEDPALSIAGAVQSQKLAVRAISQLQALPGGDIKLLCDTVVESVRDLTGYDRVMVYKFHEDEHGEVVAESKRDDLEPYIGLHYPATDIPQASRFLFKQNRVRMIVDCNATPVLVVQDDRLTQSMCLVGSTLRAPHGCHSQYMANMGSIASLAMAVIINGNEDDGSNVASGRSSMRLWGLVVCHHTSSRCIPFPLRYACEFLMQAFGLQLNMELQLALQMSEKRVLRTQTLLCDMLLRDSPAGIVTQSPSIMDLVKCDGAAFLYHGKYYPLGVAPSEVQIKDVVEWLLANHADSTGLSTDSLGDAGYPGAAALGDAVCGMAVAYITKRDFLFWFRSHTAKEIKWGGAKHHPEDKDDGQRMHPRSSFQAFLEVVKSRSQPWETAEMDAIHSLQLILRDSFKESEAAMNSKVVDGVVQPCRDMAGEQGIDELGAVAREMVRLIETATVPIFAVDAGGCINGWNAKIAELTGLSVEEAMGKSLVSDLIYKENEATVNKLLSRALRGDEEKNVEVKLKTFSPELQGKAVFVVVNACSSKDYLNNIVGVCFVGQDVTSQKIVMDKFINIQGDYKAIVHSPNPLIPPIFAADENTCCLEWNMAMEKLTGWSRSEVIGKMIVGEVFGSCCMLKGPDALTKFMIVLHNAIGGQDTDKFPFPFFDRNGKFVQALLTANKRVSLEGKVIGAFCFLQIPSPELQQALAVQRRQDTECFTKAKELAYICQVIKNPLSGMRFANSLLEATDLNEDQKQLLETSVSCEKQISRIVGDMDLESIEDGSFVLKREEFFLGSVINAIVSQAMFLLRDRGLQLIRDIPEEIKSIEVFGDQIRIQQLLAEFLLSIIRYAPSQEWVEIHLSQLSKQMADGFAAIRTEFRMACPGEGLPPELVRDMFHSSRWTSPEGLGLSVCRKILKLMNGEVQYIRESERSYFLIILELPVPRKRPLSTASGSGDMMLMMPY

target: phyB-miniTurbo (phyB CDS - miniTurbo-sCFP3A-3FLAG) (Arabidopsis thaliana) (UniProt P14713); assay: proximity labelling

Row | binding | Binder
1 | binds | phytochrome-associated PROTEIN PHOSPHATASE TYPE 2C (enzyme, UniProt Q9LME4 1-281) MGKFCCFTSASEVVGGQSSSRSGKGRSDEGMIKYGFSLVKGKANHPMEDYHVANFINIQDHELGLFAIYDGHMGDSVPAYLQKRLFSNILKEGEFWVDPRRSIAKAYEKTDQAILSNSSDLGRGGSTAVTAILINGRKLWIANVGDSRAVLSHGGAITQMSTDHEPRTERSSIEDRGGFVSNLPGDVPRVNGQLAVSRAFGDKGLKTHLSSEPDIKEATVDSQTDVLLLASDGIWKVMTNEEAMEIARRVKDPQKAAKELTAEALRRESKDDISCVVVRFR
2 | binds | PHYTOCHROME KINASE SUBSTRATE 2 (protein, UniProt Q9M9T4 1-442) MVTLTSSSSTPNVSFDFMMNNNNNSNNLYGPFSSSSTSFSYLTSKEDALTQKNLMSGITNDVLGINKKASEDLEISVFGAEKYFNGDMDSDHSPRLVSPLPDPEVPIERIFVGPKQSSKNSSETPSLRSESSWNSQSLLLQSKYVEKKKNIKKNSSCNSYFQEKDMSSNHKVSNKKSFLATLGCRCVCSNWSSVDVVDDKRRSSGLKKIKTQLSFSGDLSSEMKIHQQQQEAMLEQRKSLEIFGSPLIEKRIIQKKFPWEYSSSAKKEEHGFSVKYEEEEDGSVSDVSTDLFEIESLTGKANPFLARQGSSDPDSPDGYAPSEVSIQWSVVTASVADFSVMSECATSPVKKNRSFQIPRIPIMAKSNREIAPQRRKSSSSGLLMGCKSHKSVRVSGDSYTSMNRTPSYVPRFPVEANPTSTETRRRISSSSVSHTQSPFLYT
3 | binds | PHYTOCHROME E (protein, UniProt P42498 1-1112) MGFESSSSAASNMKPQPQKSNTAQYSVDAALFADFAQSIYTGKSFNYSKSVISPPNHVPDEHITAYLSNIQRGGLVQPFGCLIAVEEPSFRILGLSDNSSDFLGLLSLPSTSHSGEFDKVKGLIGIDARTLFTPSSGASLSKAASFTEISLLNPVLVHSRTTQKPFYAILHRIDAGIVMDLEPAKSGDPALTLAGAVQSQKLAVRAISRLQSLPGGDIGALCDTVVEDVQRLTGYDRVMVYQFHEDDHGEVVSEIRRSDLEPYLGLHYPATDIPQAARFLFKQNRVRMICDCNATPVKVVQSEELKRPLCLVNSTLRAPHGCHTQYMANMGSVASLALAIVVKGKDSSKLWGLVVGHHCSPRYVPFPLRYACEFLMQAFGLQLQMELQLASQLAEKKAMRTQTLLCDMLLRDTVSAIVTQSPGIMDLVKCDGAALYYKGKCWLVGVTPNESQVKDLVNWLVENHGDDSTGLTTDSLVDAGYPGAISLGDAVCGVAAAGFSSKDYLLWFRSNTASAIKWGGAKHHPKDKDDAGRMHPRSSFTAFLEVAKSRSLPWEISEIDAIHSLRLIMRESFTSSRPVLSGNGVARDANELTSFVCEMVRVIETATAPIFGVDSSGCINGWNKKTAEMTGLLASEAMGKSLADEIVQEESRAALESLLCKALQGEEEKSVMLKLRKFGQNNHPDYSSDVCVLVNSCTSRDYTENIIGVCFVGQDITSEKAITDRFIRLQGDYKTIVQSLNPLIPPIFASDENACCSEWNAAMEKLTGWSKHEVIGKMLPGEVFGVFCKVKCQDSLTKFLISLYQGIAGDNVPESSLVEFFNKEGKYIEASLTANKSTNIEGKVIRCFFFLQIINKESGLSCPELKESAQSLNELTYVRQEIKNPLNGIRFAHKLLESSEISASQRQFLETSDACEKQITTIIESTDLKSIEEGKLQLETEEFRLENILDTIISQVMIILRERNSQLRVEVAEEIKTLPLNGDRVKLQLILADLLRNIVNHAPFPNSWVGISISPGQELSRDNGRYIHLQFRMIHPGKGLPSEMLSDMFETRDGWVTPDGLGLKLSRKLLEQMNGRVSYVREDERCFFQVDLQVKTMLGVESRGTEGSSSIK
4 | binds | RECEPTOR LIKE PROTEIN 29 (receptor, UniProt Q9SJH6 27-462) QENRVSASMPPSESETLFKIMESMSSDQQWRQSHPNPCAPGSSWPGIECKTGPDHLSHVSRLDFGSAPNPSCKSSASFPSSIFTLPFLQSVFFFNCFTHFPTTIMFPIKLIPNSSLQQLSLRSNPSLSGQIPPRISSLKSLQILTLSQNRLTGDIPPAIFSLKSLVHLDLSYNKLTGKIPLQLGNLNNLVGLDLSYNSLTGTIPPTISQLGMLQKLDLSSNSLFGRIPEGVEKLRSLSFMALSNNKLKGAFPKGISNLQSLQYFIMDNNPMFVALPVELGFLPKLQELQLENSGYSGVIPESYTKLTNLSSLSLANNRLTGEIPSGFESLPHVFHLNLSRNLLIGVVPFDSSFLRRLGKNLDLSGNRGLCLNPEDEFSVVKTGVDVCGKNVSSGGGLSVHSSKKKSQASRYYRSCFFANALFPFALFLGLHQRWVL

Continued, binder first:

Row | Binder | binding
5 | LRR-like receptor At1g62630 (receptor, UniProt Q9SI85 1-893) MGISFSIPFDPCVNKVSQWLDMKGSYTHNLEKNLVALETTMEELKAKRDDLLRRLKREEDRGLQRLSEFQVWLNRVATVEDIIITLLRDRDVEIQRLCLCRFCSKNLTTSYRYGKSVFLRLREVEKLKGEVFGVITEQASTSAFEERPLQPTIVGQKKMLDKAWKHLMEDGTGIMGMYGMGGVGKTTLLTQLFNMFNKDKCGFDIGIWVVVSQEVNVEKIQDEIAQKLGLGGHEWTQRDISQKGVHLFNFLKNKKFVLFLDDLWDKVELANIGVPDPRTQKGCKLAFTSRSLNVCTSMGDEEPMEVQCLEENVAFDLFQKKVGQKTLGSDPGIPQLARIVAKKCCGLPLALNVIGETMSCKRTIQEWRNAIHVLNSYAAEFIGMEDKILPLLKYSYDNLKGEHVKSSLLYCALYPEDAKIRKEDLIEHWICEEIIDGSEGIEKAEDKGYDIIGSLVRASLLMECVDLKGKSSVIMHDVVREMALWIASELGIQKEAFIVRAGVGVREIPKVKNWNVVRRMSLMGNKIHHLVGSYECMELTTLLLGEGEYGSIWRWSEIKTISSEFFNCMPKLAVLDLSHNQSLFELPEEISNLVSLKYLNLSHTGIRHLSKGIQELKKIIHLNLEHTSKLESIDGISSLHNLKVLKLYGSRLPWDLNTVKELETLEHLEILTTTIDPRAKQFLSSHRLMSRSRLLQIFGSNIFSPDRQLESLSVSTDKLREFEIMCCSISEIKMGGICNFLSLVDVTIYNCEGLRELTFLIFAPKLRSLSVVDAKDLEDIINEEKACEGEDSGIVPFPELKYLNLDDLPKLKNIYRRPLPFLCLEKITIGECPNLRKLPLDSRSGKQGENGCIIHYKDSRWLKGVKWADEATKKRFLPSCEHRLERCETIFED | binds
6 | LRR-like receptor At3g24480 (receptor, UniProt Q9LHF1 26-494) LSISSNAPLSDTEVRFIQRRQLLYYRDEFGDRGENVTVDPSLIFENPRLRSAYIALQAWKQAILSDPNNITVNWIGSNVCNYTGVFCSKALDNRKIRTVAGIDLNHADIAGYLPEELGLLTDLALFHVNSNRFCGTVPHKFKQLKLLFELDLSNNRFAGKFPTVVLHLPSLKFLDLRFNEFEGTVPKELFSKNLDAIFINHNRFRFELPENFGDSPVSVIVLANNHFHGCIPTSLVEMKNLNEIIFMNNGLNSCLPADIGRLKNVTVFDVSFNELVGPLPESVGGMVEVEQLNVAHNLLSGKIPASICQLPKLENFTYSYNFFTGEAPVCLRLSEFDDRRNCLPGRPAQRSSRQCSAFLSRPSVDCGSFGCGRSVVKPSPPIVALPPPPPPSPPLPPPVYSPPPSPPVFSPPPSPPVYSPPPPPSIHYSSPPPPPVHHSSPPPPSPEFEGPLPPVIGVSYASPPPPPFY | binds
7 | LESION SIMULATING DISEASE 1 (LSD1) zinc finger family protein (protein, UniProt P94077 1-189) MKVADMQDQLVCHGCRNLLMYPRGASNVRCALCNTINMVPPPPPPHDMAHIICGGCRTMLMYTRGASSVRCSCCQTTNLVPAHSNQVAHAPSSQVAQINCGHCRTTLMYPYGASSVKCAVCQFVTNVNMSNGRVPLPTNRPNGTACPPSTSTSTPPSQTQTVVVENPMSVDESGKLVSNVVVGVTTDKK | binds
8 | PHYTOCHROME C (protein, UniProt P14714 1-1111) MSSNTSRSCSTRSRQNSRVSSQVLVDAKLHGNFEESERLFDYSASINLNMPSSSCEIPSSAVSTYLQKIQRGMLIQPFGCLIVVDEKNLKVIAFSENTQEMLGLIPHTVPSMEQREALTIGTDVKSLFLSPGCSALEKAVDFGEISILNPITLHCRSSSKPFYAILHRIEEGLVIDLEPVSPDEVPVTAAGALRSYKLAAKSISRLQALPSGNMLLLCDALVKEVSELTGYDRVMVYKFHEDGHGEVIAECCREDMEPYLGLHYSATDIPQASRFLFMRNKVRMICDCSAVPVKVVQDKSLSQPISLSGSTLRAPHGCHAQYMSNMGSVASLVMSVTINGSDSDEMNRDLQTGRHLWGLVVCHHASPRFVPFPLRYACEFLTQVFGVQINKEAESAVLLKEKRILQTQSVLCDMLFRNAPIGIVTQSPNIMDLVKCDGAALYYRDNLWSLGVTPTETQIRDLIDWVLKSHGGNTGFTTESLMESGYPDASVLGESICGMAAVYISEKDFLFWFRSSTAKQIKWGGARHDPNDRDGKRMHPRSSFKAFMEIVRWKSVPWDDMEMDAINSLQLIIKGSLQEEHSKTVVDVPLVDNRVQKVDELCVIVNEMVRLIDTAAVPIFAVDASGVINGWNSKAAEVTGLAVEQAIGKPVSDLVEDDSVETVKNMLALALEGSEERGAEIRIRAFGPKRKSSPVELVVNTCCSRDMTNNVLGVCFIGQDVTGQKTLTENYSRVKGDYARIMWSPSTLIPPIFITNENGVCSEWNNAMQKLSGIKREEVVNKILLGEVFTTDDYGCCLKDHDTLTKLRIGFNAVISGQKNIEKLLFGFYHRDGSFIEALLSANKRTDIEGKVTGVLCFLQVPSPELQYALQVQQISEHAIACALNKLAYLRHEVKDPEKAISFLQDLLHSSGLSEDQKRLLRTSVLCREQLAKVISDSDIEGIEEGYVELDCSEFGLQESLEAVVKQVMELSIERKVQISCDYPQEVSSMRLYGDNLRLQQILSETLLSSIRFTPALRGLCVSFKVIARIEAIGKRMKRVELEFRIIHPAPGLPEDLVREMFQPLRKGTSREGLGLHITQKLVKLMERGTLRYLRESEMSAFVILTEFPLI | binds
9 | LRR-like receptor At1g58848 (receptor, UniProt P0DI17 1-1049) MAGELISFGIQNLWNLLSQECELFQGVEDQVTELKRDLNLLSSFLKDADAKKHTSAVVKNCVEEIKEIIYDGEDTIETFVLEQNLGKTSGIKKSIRRLACIIPDRRRYALGIGGLSNRISKVIRDMQSFGVQQAIVDGGYKQPQGDKQREMRPRFSKDDDSDFVGLEANVKKLVGYLVDEANVQVVSITGMGGLGKTTLAKQVFNHEDVKHQFDGLSWVCVSQDFTRMNVWQKILRDLKPKEEEKKIMEMTQDTLQGELIRLLETSKSLIVLDDIWEKEDWELIKPIFPPTKGWKVLLTSRNESVAMRRNTSYINFKPECLTTEDSWTLFQRIALPMKDAAEFKIDEEKEELGKLMIKHCGGLPLAIRVLGGMLAEKYTSHDWRRLSENIGSHLVGGRTNFNDDNNNTCNYVLSLSFEELPSYLKHCFLYLAHFPDDYEINVKNLSYYWAAEGIFQPRHYDGEIIRDVGDVYIEELVRRNMVISERDVKTSRFETCHLHDMMREVCLLKAKEENFLQITSSRTSTGNSLSIVTSRRLVYQYPITLDVEKDINDPKLRSLVVVANTYMFWGGWSWMLLGSSFIRLELLRVLDIHRAKLKGGKLASSIGQLIHLRYLNLKHAEVTHIPYSLGNLKLLIYLNLVILVSGSTLVPNVLKEMQQLRYLALPKDMGRKTKLELSNLVKLETLKNFSTKNCSLEDLRGMVRLRTLTIELRKETSLETLAASIGGLKYLESLTITDLGSEMRTKEAGIVFDFVYLKTLTLKLYMPRLSKEQHFPSHLTTLYLQHCRLEEDPMPILEKLHQLKELELRRKSFSGKEMVCSSGGFPQLQKLSIKGLEEWEDWKVEESSMPVLHTLDIRDCRKLKQLPDEHLPSHLTSISLFFCCLEEDPMPTLERLVHLKELQLLFRSFSGRIMVCAGSGFPQLHKLKLSELDGLEEWIVEDGSMPQLHTLEIRRCPKLKKLPNGFPQLQNLELNELEEWEEWIVEDGSMPLLHTLRIWNCPKLKQLPDGLRFIYSLKNLTVPKRWKKRLSKGGEDYYKVQHIPSVEFY | binds
